Test results taken from US20090088340A1, “METHODS FOR PREDICTING THE REDUCTION/OXIDATION (REDOX) REACTION ACTIVITY OF METAL COMPLEXES” (WESTERN CAROLINA UNIVERSITY, priority 2007, published 2009).

Assay: Metal/fluoride association from F^− 19F NMR transverse relaxation enhancement (CPMG)
Type: physicochemical
Conditions: for effect on T2 relaxation of the F^− 19F resonance: aqueous solutions, as a function of temperature
Source text: CPMG is the standard technique for measuring transverse NMR relaxation times (T2). See, for example, Braun et al., “150 and More Basic NMR Experiments,” Wiley-VCH Weinheim, 1998, page 159.
Rate constants for metal/probe association reactions can be related directly to the effects of the metal complex on the NMR relaxation rates of probe nuclei.
R2,obs−R2,dia=kapp,F−[M] (6)
where R2,dia is the relaxation rate in diamagnetic solution and kapp,F− is the apparent second order rate constant for metal/F^− association. The effects of eleven paramagnetic metal complexes, Fe^IIIEDTA(H2O)^−, Fe^IIIEDTA(OH)^2−, Fe^IIIPDTA^−, Fe^IIIDTPA^2−, Fe^III2O(TTHA)^2−, Fe^III(CN)6^3−, Mn^IIEDTA(H2O)^2−, Mn^IIPDTA^2−, Mn^IIβ-EDDADP^2−, Mn^IIPO4^−, and Cu/Zn SOD on F^− ion ^19F NMR transverse relaxation rates (R2=1/T2) were studied in aqueous solutions as a function of temperature.
Without being bound to any one theory, the curvature of the plot can arise from a similarity in the magnitudes of outer-sphere and inner-sphere contributions to relaxation (R2,OS and R2,IS). See Dwek, R. A., Nuclear Magnetic Resonance in Biochemistry, Clarendon, Oxford, 1973. […] See Dwek, R. A., Nuclear Magnetic Resonance in Biochemistry, Clarendon, Oxford, 1973. To estimate the contribution of R2,OS, relaxation enhancement of the ^19F resonance of the trifluoroacetate anion (tfa) by Fe^IIIDTPA^2− was measured. R2,IS for the tfa resonance should be negligible due to the low basicity of the anion and the absence of a through bond pathway for magnetic interaction between the paramagnetic center and the ^19F nuclei. For the tfa resonance, R2,obs decreased with increasing temperature consistent with an outer-sphere interaction.
where α, β, and γ are constants. The γ term for F^− relaxation in Equation 7 was set equal to the slope of the least squares line for the tfa data, and ΔH^‡, α, and β were refined to give the curved trend line following the F^− data in FIG. 6. Dashed lines (a) and (b) in FIG. 6 represent the predicted outer-sphere and inner-sphere contributions to the relaxation rate, respectively. The 25° C. association rate constant and activation enthalpy in Table 1 (and used in FIG. 2) are from this refinement.

For `O=C([O-])CCN(CCN(CCC(=O)[O-])CC(=O)[O-])CC(=O)[O-].[Mn+2]` [Mn^IIβ-EDDADP^2−], the “effect on T2 relaxation of the F^− 19F resonance” value (“effect on T2 relaxation” for short) was “measurably enhanced”.
With `O=P([O-])([O-])[O-].[Mn+2]` [Mn^IIPO4 ^−] the “effect on T2 relaxation” value was “measurably enhanced”.
With `O.O=C([O-])CN(CCN(CC(=O)[O-])CC(=O)[O-])CC(=O)[O-].[Fe+3]` [Fe^IIIEDTA(H2O)^−, iron (III) ethylenediamine-N,N,N″,N″-tetraacetic acid hydrate] the “effect on T2 relaxation” value was “measurably enhanced”.
With `O.O=C([O-])CN(CCN(CC(=O)[O-])CC(=O)[O-])CC(=O)[O-].[Mn+2]` [Mn^IIEDTA(H2O)^2−] the “effect on T2 relaxation” value was “measurably enhanced”.
For “Cu/Zn SOD: copper (Cu)/zinc (Zn) superoxide dismutase enzyme”, the “effect on T2 relaxation” value was “measurably enhanced”.
With `O=C([O-])CN(CCN(CC(=O)[O-])CC(=O)[O-])CC(=O)[O-].[Fe+3].[OH-]` [Fe^IIIEDTA(OH)^2−] the “effect on T2 relaxation” value was “no measured effect” and the “reactivity of HF and F^− toward the complex” value (trend line of FIG. 8, pH 4.0 to 9.2) was “unreactive”.
For `O=C([O-])CN(CCN(CCN(CC(=O)[O-])CC(=O)[O-])CC(=O)[O-])CCN(CC(=O)[O-])CC(=O)[O-].[Fe+3].[Fe+3].[O-2]` [Fe^III2O(TTHA)^2−], the “effect on T2 relaxation” value was “measurably enhanced”.
For `O=C([O-])CN(CCN(CC(=O)[O-])CC(=O)[O-])CCN(CC(=O)[O-])CC(=O)[O-].[Fe+3]` [Fe^IIIDTPA^2−, iron (III) diethylenetriaminepentaacetate], the “Arrhenius temperature dependence of F^− 19F relaxation enhancement” value was “did not display Arrhenius temperature dependence” and the “effect on T2 relaxation” value was “measurably enhanced”.
